In publication PMC12757530:
Results are given in words; binding and its absence hold for the method and conditions named. In cells and extracts the contact can be indirect. Some binding calls cover weakened binding; strength is not graded here.

Protein sequences, listed by entry. Tags and fused reporters are not part of them.
UniProt P46938: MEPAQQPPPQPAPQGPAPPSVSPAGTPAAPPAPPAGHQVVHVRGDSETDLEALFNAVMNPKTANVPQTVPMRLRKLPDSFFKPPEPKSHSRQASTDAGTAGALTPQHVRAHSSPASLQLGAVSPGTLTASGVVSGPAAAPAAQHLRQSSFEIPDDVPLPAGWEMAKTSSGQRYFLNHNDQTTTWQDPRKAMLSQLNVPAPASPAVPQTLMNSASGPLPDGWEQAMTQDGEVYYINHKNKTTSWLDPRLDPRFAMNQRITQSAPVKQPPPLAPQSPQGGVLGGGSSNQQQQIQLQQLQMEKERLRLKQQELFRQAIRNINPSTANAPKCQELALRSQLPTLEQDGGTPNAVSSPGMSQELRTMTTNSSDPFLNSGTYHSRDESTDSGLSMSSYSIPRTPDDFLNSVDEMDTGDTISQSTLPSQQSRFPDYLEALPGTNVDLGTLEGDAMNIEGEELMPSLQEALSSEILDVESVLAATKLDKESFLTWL

Molecular target: Yes-associated protein (YAP) (mouse (endogenous in mouse skin)) (UniProt P46938)
Assay: co-IP; wild-type and Tg mouse skin lysate; IP with anti-YAP antibody, IgG isotype control; Western blot for TMEM207 and YAP

B1: Transmembrane protein 207 (TMEM207) (protein, UniProt P86045 30-143)
chain: DLSCEENEMCVNYDERYPDGWYIWFFLLIFLVVLLCGVVLFCLQCWLKRCGINPPRRTMAVFAVGDLDPVYGAEMAGSPTSGICHPTQNTELCSAPCFGALGPPPPYEEILKAN
For B1, the binding was “binds”.
